Results of single-concentration screens

By UniProt entry, the sequences of proteins in these tests, tags left out. Residues count along the entry.
UniProt P9WPC5, whole entry: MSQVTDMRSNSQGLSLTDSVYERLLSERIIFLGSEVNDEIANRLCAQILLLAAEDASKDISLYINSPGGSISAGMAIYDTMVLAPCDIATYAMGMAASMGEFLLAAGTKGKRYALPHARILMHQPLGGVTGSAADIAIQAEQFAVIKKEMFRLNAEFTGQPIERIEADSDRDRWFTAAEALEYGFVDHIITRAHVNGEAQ
UniProt P9WPC3, whole entry partner: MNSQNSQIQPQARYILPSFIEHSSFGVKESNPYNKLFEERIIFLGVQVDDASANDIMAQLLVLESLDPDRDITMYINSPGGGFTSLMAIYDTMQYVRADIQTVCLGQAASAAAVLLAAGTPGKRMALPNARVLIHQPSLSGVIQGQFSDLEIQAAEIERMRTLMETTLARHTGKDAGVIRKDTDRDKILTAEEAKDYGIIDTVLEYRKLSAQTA
UniProt I6X8D2, whole entry: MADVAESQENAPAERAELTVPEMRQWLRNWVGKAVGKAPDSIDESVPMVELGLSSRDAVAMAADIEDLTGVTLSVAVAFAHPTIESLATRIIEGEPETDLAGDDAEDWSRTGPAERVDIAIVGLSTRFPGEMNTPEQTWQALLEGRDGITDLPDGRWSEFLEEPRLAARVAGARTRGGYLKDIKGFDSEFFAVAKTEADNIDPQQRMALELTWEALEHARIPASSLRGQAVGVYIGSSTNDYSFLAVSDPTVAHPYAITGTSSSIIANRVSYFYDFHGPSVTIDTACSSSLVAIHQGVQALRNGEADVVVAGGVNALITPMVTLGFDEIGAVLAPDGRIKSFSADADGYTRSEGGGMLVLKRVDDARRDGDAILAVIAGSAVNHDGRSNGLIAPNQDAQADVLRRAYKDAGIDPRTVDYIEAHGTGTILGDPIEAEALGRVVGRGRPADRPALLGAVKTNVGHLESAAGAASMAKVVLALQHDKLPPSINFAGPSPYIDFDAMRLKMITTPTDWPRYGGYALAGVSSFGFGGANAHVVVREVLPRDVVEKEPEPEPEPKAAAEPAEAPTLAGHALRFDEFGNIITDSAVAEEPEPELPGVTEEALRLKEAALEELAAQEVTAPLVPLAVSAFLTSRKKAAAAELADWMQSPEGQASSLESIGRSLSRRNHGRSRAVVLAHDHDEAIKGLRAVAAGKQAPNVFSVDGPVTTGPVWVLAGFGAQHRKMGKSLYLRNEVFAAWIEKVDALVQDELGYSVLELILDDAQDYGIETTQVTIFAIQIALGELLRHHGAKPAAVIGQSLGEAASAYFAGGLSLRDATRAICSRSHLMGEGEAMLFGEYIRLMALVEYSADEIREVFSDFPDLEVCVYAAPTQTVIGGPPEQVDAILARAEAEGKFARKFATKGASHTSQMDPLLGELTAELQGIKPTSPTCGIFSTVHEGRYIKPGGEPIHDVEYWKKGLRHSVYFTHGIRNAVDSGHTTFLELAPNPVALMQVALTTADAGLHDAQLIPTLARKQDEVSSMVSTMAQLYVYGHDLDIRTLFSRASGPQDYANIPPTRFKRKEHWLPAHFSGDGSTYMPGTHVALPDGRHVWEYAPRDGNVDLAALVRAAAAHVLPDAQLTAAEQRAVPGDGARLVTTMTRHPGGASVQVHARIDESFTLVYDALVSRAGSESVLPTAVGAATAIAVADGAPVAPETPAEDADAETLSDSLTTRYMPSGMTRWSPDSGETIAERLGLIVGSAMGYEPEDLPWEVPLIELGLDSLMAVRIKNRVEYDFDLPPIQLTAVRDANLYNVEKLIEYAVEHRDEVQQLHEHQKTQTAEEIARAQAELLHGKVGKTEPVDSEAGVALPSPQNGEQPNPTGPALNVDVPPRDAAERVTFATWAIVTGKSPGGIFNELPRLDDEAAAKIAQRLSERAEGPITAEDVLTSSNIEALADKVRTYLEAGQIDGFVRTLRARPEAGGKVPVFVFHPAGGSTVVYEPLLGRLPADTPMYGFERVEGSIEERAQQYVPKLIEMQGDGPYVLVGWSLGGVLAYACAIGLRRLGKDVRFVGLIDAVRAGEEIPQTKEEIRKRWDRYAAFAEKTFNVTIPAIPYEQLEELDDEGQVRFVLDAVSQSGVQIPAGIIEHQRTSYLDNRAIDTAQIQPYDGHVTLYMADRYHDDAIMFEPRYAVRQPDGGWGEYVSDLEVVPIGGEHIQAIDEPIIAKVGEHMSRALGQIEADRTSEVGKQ
UniProt P9WNZ1, whole entry: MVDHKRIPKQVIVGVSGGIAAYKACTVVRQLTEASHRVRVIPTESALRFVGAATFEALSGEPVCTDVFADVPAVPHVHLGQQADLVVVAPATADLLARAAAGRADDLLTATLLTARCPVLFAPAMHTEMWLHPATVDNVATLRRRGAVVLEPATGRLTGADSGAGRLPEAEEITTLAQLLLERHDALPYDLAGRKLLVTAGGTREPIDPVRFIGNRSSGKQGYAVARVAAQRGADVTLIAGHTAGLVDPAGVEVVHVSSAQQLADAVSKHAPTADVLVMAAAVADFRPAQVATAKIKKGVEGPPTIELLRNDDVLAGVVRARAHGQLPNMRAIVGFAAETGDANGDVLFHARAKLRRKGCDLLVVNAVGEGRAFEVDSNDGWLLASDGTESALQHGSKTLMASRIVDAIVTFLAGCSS
UniProt A4I591, 1-473: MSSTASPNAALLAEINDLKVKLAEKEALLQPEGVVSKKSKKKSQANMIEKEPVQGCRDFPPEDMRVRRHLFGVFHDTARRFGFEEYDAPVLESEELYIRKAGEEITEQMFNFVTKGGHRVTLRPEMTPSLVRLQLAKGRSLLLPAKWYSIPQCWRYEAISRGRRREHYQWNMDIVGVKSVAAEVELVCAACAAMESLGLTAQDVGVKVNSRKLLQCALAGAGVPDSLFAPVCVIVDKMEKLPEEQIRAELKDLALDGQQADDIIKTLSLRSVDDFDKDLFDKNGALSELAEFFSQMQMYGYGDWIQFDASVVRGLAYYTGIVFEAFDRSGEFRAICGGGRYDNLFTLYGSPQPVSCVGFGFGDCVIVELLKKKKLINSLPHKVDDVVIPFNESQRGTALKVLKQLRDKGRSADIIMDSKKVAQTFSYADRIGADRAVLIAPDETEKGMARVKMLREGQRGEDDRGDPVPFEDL
UniProt Q4DA54, 1-478: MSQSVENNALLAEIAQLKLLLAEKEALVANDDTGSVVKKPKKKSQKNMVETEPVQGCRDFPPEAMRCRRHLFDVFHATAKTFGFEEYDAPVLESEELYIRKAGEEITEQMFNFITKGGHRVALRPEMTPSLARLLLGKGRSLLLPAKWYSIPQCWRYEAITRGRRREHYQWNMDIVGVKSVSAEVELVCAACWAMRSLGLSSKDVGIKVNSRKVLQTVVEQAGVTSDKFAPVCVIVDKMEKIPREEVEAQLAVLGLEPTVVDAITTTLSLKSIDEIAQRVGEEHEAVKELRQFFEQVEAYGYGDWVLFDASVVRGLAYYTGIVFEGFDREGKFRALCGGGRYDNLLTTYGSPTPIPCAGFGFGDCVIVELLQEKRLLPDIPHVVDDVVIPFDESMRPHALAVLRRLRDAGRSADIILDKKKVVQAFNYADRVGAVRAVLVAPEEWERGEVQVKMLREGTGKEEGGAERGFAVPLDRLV

ClpP1P2: 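ClpP1P2, Mycobacterium tuberculosis (UniProt P9WPC5 and UniProt P9WPC3). Protease assay of ClpP1P2, read by the AMC dye that it sets free. Concentration: 50 µM. Direction is inferred from only a few compounds that gave an IC50; most scored high, so higher reads as stronger inhibition. Most other retested compounds had strongly negative values. Size under these conditions: about 69,000 compounds, about 10 of them at 50% or above in at least one test.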
Pks13 thioesterase: 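Enzyme assay of the thioesterase domain of polyketide synthase 13; the read-out is not stated. Target: Polyketide synthase Pks13, Mycobacterium tuberculosis (UniProt I6X8D2). Concentration: 30 µM. Higher reads as stronger inhibition (inferred from which compounds were picked for retests). Of about 67,000 compounds tested this way, about 300 (0.46%) reached 50% or more in at least one test.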
CoaBC: 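Enzyme assay of CoaBC with a phosphate dye (Biomol Green) read at 650 nm. Target: Coenzyme A biosynthesis protein CoaBC, Mycobacterium tuberculosis (UniProt P9WNZ1). Concentration: 30 µM. Direction is inferred from only a few compounds that gave an IC50; most scored high, so higher reads as stronger inhibition. Most strong results did not repeat in a second test. About 67,000 compounds were tested under these conditions; 0.06% (about 40) showed 50% or more at least once.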
LiHisRS: 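Enzyme assay of histidyl-tRNA synthetase; the read-out is not stated. Target: Histidine-tRNA ligase, Leishmania infantum (UniProt A4I591). Compounds at 30 µM. Direction is inferred from retests: higher values go with stronger inhibition. The assay is labelled LdHisRS but filed under L. infantum. Size under these conditions: about 69,000 compounds, about 410 of them at 50% or above in at least one test.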
TcHisRS: 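Histidine-tRNA ligase, Trypanosoma cruzi CL Brener (UniProt Q4DA54). Enzyme assay of histidyl-tRNA synthetase; the read-out is not stated. Compounds at 30 µM. The record gives no direction; compounds that gave an IC50 in retests scored well above the rest, so higher reads as stronger inhibition. Of about 69,000 compounds tested this way, about 31 (0.045%) reached 50% or more in at least one test.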

Each number is a percent effect as filed. The controls that fix the scale are not given in the record; negative values are as filed. The compounds are a random part of those screened.

CCOC(=O)CCNC(=O)c1cc(Cl)cc2cccnc12 read ClpP1P2: -0.5178%; Pks13 thioesterase: -0.1523%; CoaBC: 1.013%; LiHisRS: 26.32%; TcHisRS: 4.878%.
CCc1nnsc1C(=O)NCCC1CCCN(C(C)C)C1 (stereo not shown) read ClpP1P2: 3.587%; Pks13 thioesterase: 10.46%; CoaBC: 13.61%; LiHisRS: 22%; TcHisRS: 12.05%.
COC(=O)CCNC(=O)c1c[nH]cc1-c1cccc(OC)c1 read ClpP1P2: 5.915%; Pks13 thioesterase: -8.195%; CoaBC: 10.28%; LiHisRS: 18.18%; TcHisRS: -1.087%.
Cc1ocnc1C(=O)N1CCC(c2nccn2Cc2ccncc2)CC1 read ClpP1P2: 1.918%; Pks13 thioesterase: -1.056%; CoaBC: -1.086%; LiHisRS: 13.6%; TcHisRS: -1.508%.
COc1cccc(NC(=O)N(CCC(F)(F)F)C[C@H](O)CO)c1 read ClpP1P2: 0.7401%; Pks13 thioesterase: -4.501%; CoaBC: -6.452%; LiHisRS: -3.509%; TcHisRS: 7.563%.
CCCc1n[nH]c(C2CN(C(=O)c3cccnc3N(C)C)CCO2)n1 (stereo not shown) read ClpP1P2: -25.62%; Pks13 thioesterase: -11.92%; CoaBC: 2.937%; LiHisRS: 2.679%; TcHisRS: 4.046%.
O[C@@H]1CCN(CC2CC2)[C@H]1Cc1ccccc1 read ClpP1P2: 3.513%; Pks13 thioesterase: -0.545%; CoaBC: 6.767%; LiHisRS: 12.82%; TcHisRS: 0%.
COCCC(=O)N1CCN(CC2CC2)c2ccccc21 read ClpP1P2: -4.049%; Pks13 thioesterase: -12.88%; CoaBC: -1.222%; LiHisRS: 26.47%; TcHisRS: -7.937%.
Cc1nn(C)cc1CN(C)C(=O)c1cnccn1 read ClpP1P2: -5.373%; Pks13 thioesterase: -14.15%; CoaBC: 7.922%; LiHisRS: 12.39%; TcHisRS: -4.386%.
CC(=O)Nc1nc2c(s1)C1(CCCC1)Nc1ccccc1S2 read ClpP1P2: 3.051%; Pks13 thioesterase: 0.9448%; CoaBC: 2.289%; LiHisRS: 20%; TcHisRS: 12.43%.
Cc1ccc(O)c(C(=O)NCCCS(=O)(=O)Cc2ccccc2)c1 read ClpP1P2: -6.253%; Pks13 thioesterase: 1.389%; CoaBC: 6.375%; LiHisRS: 24.66%; TcHisRS: -1.053%.
Cn1cc(N2CC3(COCCN(Cc4nccs4)C3)OCC2=O)cn1 (stereo not shown) read ClpP1P2: 1.256%; Pks13 thioesterase: -9.096%; CoaBC: -9.244%; LiHisRS: 10.91%; TcHisRS: 2.479%.
O=C(Nc1cc(F)ccc1OCC1CCCO1)c1ccccn1 (stereo not shown) read ClpP1P2: 0.2017%; Pks13 thioesterase: -21.87%; CoaBC: 2.821%; LiHisRS: 8%; TcHisRS: -1.887%.
Cc1cc(-c2ccnn2C)nc(C2CCCN(S(C)(=O)=O)C2)n1 (stereo not shown) read ClpP1P2: -0.04316%; Pks13 thioesterase: 17.95%; CoaBC: 8.631%; LiHisRS: 5.634%; TcHisRS: 4.545%.
Cc1nn(C)c(C)c1OCC(=O)N1CCC(O)(C(F)(F)F)CC1 read ClpP1P2: 2.268%; Pks13 thioesterase: -36.31%; LiHisRS: 14.29%; TcHisRS: 11.69%.
COc1ccc(C)cc1C(=O)NC1(C#N)CCOCC1 read ClpP1P2: -6.506%; Pks13 thioesterase: -16.63%; CoaBC: 10.75%; LiHisRS: 12.5%; TcHisRS: 3.509%.
COc1cc(OC)cc(C(=O)NCc2nn(C)c3c2COCC3)c1 read ClpP1P2: -14.93%; Pks13 thioesterase: -8.416%; CoaBC: -3.03%; LiHisRS: 8.219%; TcHisRS: 3%.
CCOC(=O)CSc1nnc([C@@H](N)C(C)C)o1 read ClpP1P2: -22.46%; Pks13 thioesterase: -3.847%; CoaBC: 6.214%; LiHisRS: 8.333%; TcHisRS: 6.25%.
Cc1cc(N2CCC3(CC2)C(C(=O)O)CC(=O)N3C)nc2ccccc12 (stereo not shown) read ClpP1P2: -8.177%; Pks13 thioesterase: 3.434%; CoaBC: -8.442%; LiHisRS: 13.11%; TcHisRS: 4%.
Cc1noc(C)c1C(=O)N[C@@H]1CCC[C@@H](Oc2ccccc2)[C@@H]1O read ClpP1P2: -9.822%; Pks13 thioesterase: 10.4%; CoaBC: 12.83%; LiHisRS: 6.993%; TcHisRS: 1.13%.
CC(C)[C@H]1CN(CCCO)C[C@@H]1NC(=O)CCC(F)(F)F read ClpP1P2: -5.044%; Pks13 thioesterase: -4.081%; CoaBC: 8.009%; LiHisRS: 8.197%; TcHisRS: 5.6%.
CC(C(=O)Nc1ncccn1)N1CCC(n2ccnc2)CC1 (stereo not shown) read ClpP1P2: -12.16%; Pks13 thioesterase: -46.69%; CoaBC: 18.38%; LiHisRS: 13.68%; TcHisRS: 2.703%.
COc1ccc(CN(C)C(=O)c2nnc(CN(C)C)o2)cc1 read ClpP1P2: -1.695%; Pks13 thioesterase: -19.56%; CoaBC: 4.733%; LiHisRS: 9.677%; TcHisRS: 9.948%.
CCCn1cc(Cl)c(C(=O)N2C[C@@H](O)[C@H](NC(C)=O)C2)n1 read ClpP1P2: -0.2281%; Pks13 thioesterase: 13.02%; CoaBC: 10.53%; LiHisRS: 10.07%; TcHisRS: 5.747%.
O=C1CC(c2ccccc2)c2sc(C(=O)O)c(-c3ccccc3)c2N1 (stereo not shown) read ClpP1P2: -13.51%; Pks13 thioesterase: -32%; CoaBC: -0.7663%; LiHisRS: 12.99%; TcHisRS: 4.848%.
O=C(c1ccc2[nH]nnc2c1)N1C[C@H](O)[C@]2(CCCO2)C1 read ClpP1P2: -12.54%; Pks13 thioesterase: -30.54%; CoaBC: -2.913%; LiHisRS: 12.86%; TcHisRS: 4.981%.

2 of the entries, repeated:

{"structure": "COCCC(=O)N1CCN(CC2CC2)c2ccccc21", "ClpP1P2": -4.049, "Pks13 thioesterase": -12.88, "CoaBC": -1.222, "LiHisRS": 26.47, "TcHisRS": -7.937}
{"structure": "Cc1nn(C)cc1CN(C)C(=O)c1cnccn1", "ClpP1P2": -5.373, "Pks13 thioesterase": -14.15, "CoaBC": 7.922, "LiHisRS": 12.39, "TcHisRS": -4.386}

Source: ChEMBL document CHEMBL3988442, “University of Dundee, Small-Polar-MMV Screening Library” (2021).